Data taken from PubChem BioAssay AID493014 (National Center for Advancing Translational Sciences (NCATS), 2011).
Some of the results follow. The main result of the screen is listed elsewhere. These columns were measured beside it and carry no call. The list favours compounds with an active or inconclusive main result. The note in brackets gives the kind of curve behind each potency; many fits are weak.

Experiment: qHTS Assay to Find Inhibitors of Chronic Active B-Cell Receptor Signaling
Settings: ABC-DLBCL IkBa-CBG/CBR reporter, luminescence ratio (green luciferase fused to IkBa over red control in TMD8 lymphoma cells), 4 h
Outline: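 TMD8 ABC-DLBCL cells carrying doxycycline-inducible green luciferase fused to IkappaBalpha plus unfused red luciferase were exposed to compounds (up to 46 uM) for 4 hrs at 37C. Activity came from the overlap-corrected green/red luminescence ratio.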

[1] = measured here: CBR red luminescence, cell number
[2] = measured here: IkBa-CBG green luminescence

Row | SMILES | AC50 [1] | AC50 [2]
1 | Cc1cc(C)n2nc(C(=O)NCCc3ccccc3)nc2n1 | 14.6 µM [falling, single point] | –
2 | CC(=O)c1c(C)[nH]c(C(=O)COC(=O)Cc2ccccc2F)c1C | 13 µM [rising, partial curve, poor fit] | –
3 | Oc1ccc(/C=N/Nc2nc(N3CCCCCC3)nc(N3CCCCCC3)n2)c(O)c1 | 35.5 µM [falling, single point] | –
4 | NC1=NC[C@@H](Cc2ccc(O)cc2)N1CCc1cccc2ccccc12 | 35.5 µM [falling, single point] | –
5 | CC(C)[n+]1ccn(C2=C([O-])c3ccccc3C(=O)/C2=N\S(=O)(=O)c2ccccc2)c1 | 35.5 µM [falling, single point] | –
6 | CN(Cc1ccccc1)C(=O)c1[nH]cnc1C(=O)Nc1nccs1 | 7.31 µM [falling, partial curve, poor fit] | 11.6 µM [rising, partial curve, poor fit]
7 | CCC(=O)Oc1ccc2c(C)cc(=O)oc2c1C | 2.06 µM [rising, single point] | –
8 | Cc1cccnc1NC1OC(=O)c2ccccc21 (configuration not stated) | 8.2 µM [falling, partial curve, poor fit] | –
9 | CC(=O)c1ccc(NC(=O)c2cc3nc4c(c(C(F)(F)F)n3n2)CCCC4)cc1 | 25.9 µM [rising, single point] | –
10 | Cc1ccc(OCCC(=O)OCC(=O)C(C)(C)C)cc1 | 23.1 µM [rising, partial curve, poor fit] | –
11 | COc1cccc(C2=NOC(C(=O)NCc3ccccc3)C2)c1 (configuration not stated) | 22.4 µM [rising, single point] | 35.5 µM [falling, single point]
12 | COC(=O)c1ccc2c(=O)n(CCCCCC(=O)N3CCN(c4ccc(OC)cc4)CC3)c(=O)[nH]c2c1 | 3.16 µM [falling, full curve, poor fit] | –
13 | COc1cccc(N(C(=O)c2nc3nccc(C)n3n2)c2nc3ccccc3s2)c1 | 0.326 µM [rising, partial curve, poor fit] | –
14 | COc1ccc(/C=C2\SC(=S)N(CCCC(=O)Nc3cc(C)on3)C2=O)cc1OC | 4.47 µM [falling, partial curve] | –
15 | Cc1c(O)ccc(-c2[nH]ncc2-c2nc3ccccc3s2)c1O | 2.59 µM [falling, partial curve, poor fit] | –
16 | Cc1c(CN2CCC(C)CC2)c(=O)n(-c2ccccc2)n1C | 22.4 µM [rising, partial curve, poor fit] | –
17 | Cc1noc(C)c1COc1ccc(C(=O)OCC(=O)Nc2ccc3ccccc3c2)cc1 | 29.1 µM [falling, single point] | –
18 | Cc1[nH]c2ccccc2c1/C=C(\C#N)S(=O)(=O)c1ccccc1 | 1.84 µM [falling, full curve, poor fit] | –
19 | CCOC(=O)C1CCCCN1C(=O)c1oc2c(Cl)cc(C)cc2c1C (configuration not stated) | 11.2 µM [rising, partial curve] | –
20 | N/C(=N\OC(=O)COc1ccc2ccccc2c1Br)c1ccccn1 | 25.1 µM [falling, single point] | –

Complete entries, quoted from the list:
Cc1ccc(OCCC(=O)OCC(=O)C(C)(C)C)cc1 in the list: AC50 [1]: 23.1 µM [rising, partial curve, poor fit]
Cc1c(CN2CCC(C)CC2)c(=O)n(-c2ccccc2)n1C in the list: AC50 [1]: 22.4 µM [rising, partial curve, poor fit]
NC1=NC[C@@H](Cc2ccc(O)cc2)N1CCc1cccc2ccccc12 in the list: AC50 [1]: 35.5 µM [falling, single point]

The list continues:

Row | SMILES | AC50 [1] | AC50 [2]
21 | Cc1cc(C(=O)N2CCCCCC2)cs1 | 8.2 µM [rising, partial curve, poor fit] | –
22 | COC(=O)c1[nH]c2cc(OC)c(OC)cc2c1NC(=O)Oc1ccccc1 | 11.6 µM [rising, partial curve, poor fit] | –
23 | C/C=C(/C)C(=O)O[C@@H]1c2cc3c(c4c2[C@@]2(CO4)C(=O)C(OC)=C(OC)C=C2C[C@@H](C)[C@H]1C)OCO3 | 2.82 µM [rising, partial curve, poor fit] | –
24 | CCOC(=O)Cc1nnc(NC(=O)C2CCCCC2)s1 | 7.94 µM [rising, partial curve] | –
25 | CCn1ccc(C(=O)Nc2ccsc2C(=O)OC)n1 | 3.98 µM [falling, partial curve, poor fit] | –
26 | O=C1[C@@H]2Cc3ccccc3CN2C(=O)N1c1cccc(F)c1 | 3.66 µM [rising, single point] | –
27 | CCCn1ccc2c(OCC(=O)NCc3ccccc3Cl)cccc2c1=O | 10 µM [falling, partial curve, poor fit] | –
28 | O=C(CSc1nc2ccccc2s1)CSc1nc2ccccc2s1 | 0.184 µM [falling, full curve, poor fit] | –
29 | CN(CC1CCCO1)S(=O)(=O)c1ccc(C(=O)Nc2nc3cc4c(cc3s2)OCO4)cc1 (configuration not stated) | 0.316 µM [falling, full curve, poor fit] | –
30 | CCS(=O)(=O)c1nc(S(=O)(=O)c2ccc(Cl)cc2)c(NCc2ccccn2)s1 | 35.5 µM [falling, single point] | –
31 | Nc1c(Cl)ncnc1N/N=C/c1ccc2ccccc2n1 | 29.1 µM [falling, single point] | –
32 | Cc1nnc2nc(-c3ccccc3)nc(-c3ccccc3)n12 | 35.5 µM [falling, single point] | 3.55 µM [rising, full curve, poor fit]
33 | Cc1ccc2nc(SCC(=O)Nc3ccccc3N3CCOCC3)c(C#N)cc2c1 | 0.517 µM [falling, partial curve, poor fit] | –
34 | CCc1cc(C(=O)Nc2ccc(C)cc2Br)cs1 | 0.731 µM [rising, full curve, poor fit] | –
35 | O=[N+]([O-])c1cc(C(F)(F)F)cc([N+](=O)[O-])c1NCCNC(=S)Nc1ccc(Cl)c(Cl)c1 | 35.5 µM [falling, single point] | –
36 | COc1cccc(CNC(=O)C2=Cc3cccc(OC)c3OC2)c1 | 10 µM [falling, partial curve, poor fit] | –
37 | CC(=O)c1cccc(NC(c2ccc(F)cc2)c2nnc(-c3ccccc3)o2)c1 (configuration not stated) | 35.5 µM [falling, single point] | –
38 | Nc1cc(C(=O)OCC(=O)N2CCOCC2)ccc1Cl | 7.94 µM [falling, partial curve] | –
39 | c1ccc(-c2csc(N3CCOCC3)n2)cc1 | – | 6.51 µM [rising, partial curve, poor fit]
